Experimental findings from patent US20150291521, “PYRROL-1-YL BENZOIC ACID DERIVATIVES USEFUL AS MYC INHIBITORS” (DANA-FARBER CANCER INSTITUTE, INC., published 2015) are described below.

Chains of the proteins cited; added tags and fusions are not shown. Chains listed by the source or under a name are the forms on record and can include a tag or linker.
MITF/MITF homodimer, one chain, as listed by the source: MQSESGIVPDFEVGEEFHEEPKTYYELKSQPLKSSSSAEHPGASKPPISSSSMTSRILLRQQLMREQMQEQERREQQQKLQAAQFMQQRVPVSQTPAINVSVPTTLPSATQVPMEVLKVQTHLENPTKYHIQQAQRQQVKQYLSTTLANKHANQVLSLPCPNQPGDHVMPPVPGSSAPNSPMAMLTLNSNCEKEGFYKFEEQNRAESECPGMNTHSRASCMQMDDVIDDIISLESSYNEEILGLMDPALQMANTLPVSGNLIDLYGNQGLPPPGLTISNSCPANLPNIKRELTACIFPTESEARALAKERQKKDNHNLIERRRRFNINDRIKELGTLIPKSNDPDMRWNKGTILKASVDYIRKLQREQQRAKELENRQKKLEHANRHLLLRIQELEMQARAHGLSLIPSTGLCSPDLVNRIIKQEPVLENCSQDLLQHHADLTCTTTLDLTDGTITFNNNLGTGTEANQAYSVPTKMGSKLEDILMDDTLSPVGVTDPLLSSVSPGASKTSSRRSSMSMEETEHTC

For at least one entry, the source does not settle the construct or the ends of the probe.

The data set deals with MITF/MITF homodimer. In words: EMSA. To be noted: MITF/MITF/Ebox complex; disrupted by compounds 79, 92, 101; purified recombinant protein; label: 5' biotin-triethyleneglycol.

For “GGAAGCAGACCACGTGGTCTGCTTCC (double strand) [Ebox DNA]”, the binding result is on record as “binds”.
